From ChEMBL document CHEMBL3988442, “University of Dundee, Small-Polar-MMV Screening Library” (2021).

Protein sequences, listed by entry. Tags and fused reporters are not part of them.
UniProt E9BF75, entry or part of it: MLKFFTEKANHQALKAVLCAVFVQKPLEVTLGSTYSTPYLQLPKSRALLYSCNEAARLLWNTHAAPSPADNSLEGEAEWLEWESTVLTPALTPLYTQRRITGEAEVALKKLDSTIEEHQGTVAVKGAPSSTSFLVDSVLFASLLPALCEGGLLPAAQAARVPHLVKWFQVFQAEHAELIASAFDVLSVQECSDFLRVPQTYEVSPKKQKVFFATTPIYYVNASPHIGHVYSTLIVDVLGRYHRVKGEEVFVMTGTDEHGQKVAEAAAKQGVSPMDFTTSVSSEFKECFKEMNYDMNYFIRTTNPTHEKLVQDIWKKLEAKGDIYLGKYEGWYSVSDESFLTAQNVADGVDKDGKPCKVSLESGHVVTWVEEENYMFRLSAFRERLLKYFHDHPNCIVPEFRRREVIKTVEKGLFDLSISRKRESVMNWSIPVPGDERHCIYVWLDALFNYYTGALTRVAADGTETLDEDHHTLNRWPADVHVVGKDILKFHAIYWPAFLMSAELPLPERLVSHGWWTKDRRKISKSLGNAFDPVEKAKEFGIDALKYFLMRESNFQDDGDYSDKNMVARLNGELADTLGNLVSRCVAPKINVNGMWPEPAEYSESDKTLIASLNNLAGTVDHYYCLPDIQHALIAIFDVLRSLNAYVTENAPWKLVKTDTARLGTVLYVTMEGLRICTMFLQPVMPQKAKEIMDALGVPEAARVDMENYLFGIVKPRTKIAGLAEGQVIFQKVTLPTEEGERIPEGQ

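Primary screen of methionyl-tRNA synthetase; the read-out is not stated. Target: Methionyl-tRNA synthetase (putative), Leishmania donovani (UniProt E9BF75). The test concentration is not given. The values are filed as inhibition. Of about 68,000 compounds tested this way, about 24 (0.035%) reached 50% or more in at least one test.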

Results are percentages, as filed. The record does not define 0% and 100%; most values in the screen are far below 50% and negative numbers occur (in some assays of this library far below -100). Compounds were drawn at random from those tested, without regard to their results.

| # | SMILES | Inhibition |
|---|---|---|
| 1 | `O=C(c1ccncc1F)N1CC[C@@H]2CN(c3ncccn3)CCO[C@@H]2C1` | 9.95 |
| 2 | `Cc1nccn1-c1ccc(CNC(=O)c2ccc[nH]2)cn1` | 6.15 |
| 3 | `Cn1c(=O)[nH]c(=O)n2c(CC(=O)Nc3c(Cl)cccc3Cl)cnc12` | 5.714 |
| 4 | `CN1CC2(CCN(c3ncnc4c3CCNC4)CC2)OC1=O` | 5.602 |
| 5 | `Cn1ccnc1CN1CCC2(COCCN(S(=O)(=O)C3CC3)C2)C1` (stereo not drawn) | 9.89 |
| 6 | `CN(C)CCOCC1CN(C(=O)c2ccsc2)Cc2ccnn2C1` (stereo not drawn) | 5.926 |
| 7 | `COC(C)(C)CNC(=O)N1CCC(n2ccc(C(F)(F)F)n2)CC1` | 19.76 |
| 8 | `COc1ccccc1CCN(C)C(=O)NC(C)c1nncn1C` (stereo not drawn) | 17.48 |
| 9 | `O=C1COc2ccc(S(=O)(=O)NCc3ccccc3)c3c2N1CCC3` | 21.12 |
| 10 | `CC1(C)Cc2ccccc2-c2nc(NCCO)[nH]c(=O)c21` | 18.31 |
| 11 | `Cc1ccc(NC(=O)N2CCC(NC(=O)c3ccc(C)o3)CC2)cc1` | 17.36 |
| 12 | `CC(CN1CCC2(CC1)N=C(N(C)C)NC2=O)c1ccccc1` (stereo not drawn) | 11.63 |
| 13 | `O=C(NCC1(O)CCCCC1)c1coc(COc2cccc(F)c2)n1` | 3.78 |
| 14 | `Cc1nc(CN2CCO[C@@H]3CN(Cc4ccccn4)CC[C@@H]3C2)cs1` | 7.19 |
| 15 | `Cc1ccc([C@@H]2CN(C(=O)c3csc(C)n3)C[C@H]2NC(=O)C2CC2)cc1` | 15.56 |
| 16 | `CCc1nc(C2CCCN(C(=O)c3ccc4[nH]nnc4c3)C2)no1` (stereo not drawn) | 6.944 |
| 17 | `c1ccc(OC2COC3(CCN(Cc4ccccn4)CC3)C2)cc1` (stereo not drawn) | 14.29 |
| 18 | `COc1cc(N2C[C@@H](C)[C@](O)(C3CC3)C2)ncn1` | 4.902 |
| 19 | `CN(CCn1cnnc1)S(=O)(=O)c1ccc(C(F)(F)F)nc1` | 5.352 |
| 20 | `CC(C)=CCN1C[C@H]2CC[C@@H]1CN(C(=O)CCc1n[nH]c(C)n1)C2` | 13.07 |
| 21 | `Cc1nc(C)n(CC2CCCN(Cc3nc(C4CC4)no3)C2)n1` (stereo not drawn) | 11.11 |
| 22 | `CNc1cc(CCNC(=O)C2CCCC2)nc(-c2ccccn2)n1` | 9.688 |
| 23 | `CCc1cnc(COc2ccc(OC3CCCCNC3=O)cc2)o1` (stereo not drawn) | 13.81 |
| 24 | `COc1cccc(CCC2CCCN(C(=O)C3=NN(C)C(=O)CC3)C2)c1` (stereo not drawn) | 16.3 |
| 25 | `CC(C)c1ccn(C2(C(=O)O)CCN(c3ccncc3F)CC2)n1` | 6.301 |
| 26 | `CNc1nc2c(c(C(=O)N3CCCC3)n1)CN(C(=O)CCSC)CC2` | 13.5 |
| 27 | `O=C(CSC(F)(F)F)N1CCC2(CCCN(C3CCOCC3)C2=O)C1` (stereo not drawn) | 4.908 |
| 28 | `CCC1=NN2C(=N)/C(=C/c3cccc(Cl)c3)C(=O)N=C2S1` | 12.78 |
| 29 | `CCc1ccc2c(c1)C(CCNC(=O)CSC(F)(F)F)C(=O)N2` (stereo not drawn) | 10.57 |
| 30 | `COc1ccc(OC)c(C(O)CNC(=O)Nc2cccnc2OC)c1` (stereo not drawn) | 19.44 |
| 31 | `CCCC(=O)N1CCCCC1c1nccc(C)n1` (stereo not drawn) | 3.236 |
| 32 | `CCOc1ncccc1NC(=O)NC1CCCN(c2ncccn2)C1` (stereo not drawn) | 15.68 |
| 33 | `CC(C)c1nn(C)c(N(C)C)c1CNCc1cscn1` | 15.92 |
| 34 | `Cc1cccc(S(=O)(=O)N2CCCc3c(c(=O)n(C)n3C)C2)c1` | 12.57 |
| 35 | `Cc1nncn1CCN1C(=O)CC2(CCCC2)CC1=O` | 11.92 |
| 36 | `c1ccc2[nH]c(C3CCN(Cc4nc(C5CC5)no4)CC3)cc2c1` | 8.078 |
| 37 | `CS(=O)(=O)N1CCCCC1c1ccc(Nc2cnccn2)nc1` (stereo not drawn) | 10.47 |
| 38 | `c1cncc(OC[C@]23COC[C@H]2CN(Cc2cccs2)C3)c1` | 15.24 |
| 39 | `O=C(Nc1ccc(-c2csnn2)cc1)NC(CCO)C1CC1` (stereo not drawn) | 6.443 |
| 40 | `CC(C)Cc1noc(CN(C)C2CCS(=O)(=O)C2)n1` (stereo not drawn) | 19.64 |
| 41 | `CCOc1ccc(C(=O)N2CCCC2c2cnn(C)c2)cn1` (stereo not drawn) | 8.659 |
| 42 | `Cn1nccc1CCC(=O)N1CCOC(c2cnccn2)C1` (stereo not drawn) | 14.15 |
| 43 | `N#Cc1cccc(CN2CCCC2Cn2cccn2)c1` (stereo not drawn) | 19.55 |
| 44 | `O=C(C1CCS(=O)(=O)CC1)N1C[C@H]2CC[C@@H]1CN(Cc1ccccc1)C2` | 0 |
| 45 | `CCN(CC)C(=O)c1cc(C2CCCN2C)ccn1` (stereo not drawn) | 12.67 |
| 46 | `CN1CCCC1CCNC(=O)c1ccccc1-n1cc(CN)cn1` (stereo not drawn) | 6.977 |
| 47 | `Clc1ccc2nncc(N3CCCCC3)c2c1` | 8.271 |
| 48 | `CCN1CCC(N2CCN(c3cc(-c4nc(C)no4)ccn3)CC2)CC1` | 1.718 |
| 49 | `CS(=O)(=O)N1CCC(Oc2cnccn2)CC1` | 19.61 |
| 50 | `NC(=O)COc1ccc(CN2CC[C@@]3(O)CCCC[C@H]3C2)cc1Cl` | 11.15 |
| 51 | `CC1CCN(CCNC(=O)C2CCN(S(N)(=O)=O)CC2)CC1` | 15.04 |
| 52 | `Cn1cccc1CN(C(=O)CC(CC(=O)O)c1cccs1)C1CC1` (stereo not drawn) | 7.627 |
| 53 | `O=S(=O)(C1CC1)N1CCn2c(Cn3cccn3)cnc2C1` | 11.5 |
| 54 | `O=C(Cc1cccc(F)c1)N1CCc2ncnc(NC3CC3)c2CC1` | 10.34 |
| 55 | `CC(=O)N1N=C(c2cccs2)OC1C(=O)NCCc1cccc(Cl)c1` (stereo not drawn) | 0.2778 |
| 56 | `CC(C)OCCCNC(=O)CC1(Cn2cnnn2)CCCCC1` | 12.83 |
| 57 | `Cc1cccc(N2CCN(C(=O)CCc3ccsc3)C(C)C2)n1` (stereo not drawn) | 17.49 |
| 58 | `Cc1cccc(C2(CNC(C)c3nnc(C)o3)CCCC2)c1` (stereo not drawn) | 2.538 |
| 59 | `CCc1nc(C)c(C(=O)NCCNc2ncccc2C#N)s1` | 11.35 |
| 60 | `COc1ccc(C)cc1-n1ccc(C(=O)NCC2CCCOC2)n1` (stereo not drawn) | 13.2 |
| 61 | `CSc1ccc(-c2nc(CN3CCC(CN)C3)c(C)o2)cc1` (stereo not drawn) | 12.53 |
| 62 | `CC(C)N1CCOC[C@H]1c1nc(-c2ccncc2)c[nH]1` | 12.78 |
| 63 | `COc1cccc(CN2CCCCCC2c2cccc(F)c2)c1O` (stereo not drawn) | 16.8 |
| 64 | `CC(C)(C)CN1CCC(c2nccnc2Nc2cnccn2)CC1` | 15.75 |